From patent US4455303A (priority 1983, dated 1984)

How the values were obtained:
[1] = general procedure: Boc solid-phase peptide synthesis; benzhydrylamine resin (0.40 mM NH2/g; 0.44 mMol amine/g) or LS-601 Merrifield resin (0.75 mM Cl/g); dicyclohexylcarbodiimide (DCC); BOP; conditions: for step yield: purification step; for crude yield / crude mass: whole synthesis
[2] = general procedure: Boc solid-phase peptide synthesis; p-methylbenzhydrylamine; dicyclohexylcarbodiimide (DCC); BOP; conditions: whole synthesis, scale 208 umol
[3] = general procedure: Boc solid-phase peptide synthesis; benzhydrylamine; dicyclohexylcarbodiimide (DCC); BOP
[4] = general procedure: Boc solid-phase peptide synthesis; chloromethyl (Merrifield) polymer; dicyclohexylcarbodiimide (DCC); BOP; conditions: purification step

Row | Substance | step yield [1] [%] | crude mass ([1]; scale 150 umol) [g] | also measured
1 | 4-chlorophenylalanylphenylalanylvalyltyrosyllysine-amide | 58 | 0.24 | crude yield [1]: 100%
2 | Phenylalanyl-4-chlorophenylalanylvalyltyrosyllysineamide | 49 | 0.210 | 
3 | Phenylalanyl-4-iodophenylalanylvalyltyrosyllysine-amide | 75 |  | crude mass ([1]; scale 234 umol): 0.233 g
4 | Phenylalanyl-O-methyltyrosylvalyltyrosyllysine-amide | 91 |  | crude mass ([1]; scale 234 umol): 0.229 g
5 | Phenylalanylphenylalanyl-threo-3-chloro-L-2-amino-butyryltyrosyllysine amide | 55 | 0.240 | 
6 | Phenylalanylphenylalanylthreonyltyrosyllysine-amide | 56 | 0.20 | 
7 | Phenylalanylphenylalanylvalyl-4-chlorophenylalanyllysine-amide | 56 |  | crude mass ([1]; scale 208 umol): 0.21 g
8 | Phenylalanylphenylalanylvalylphenylalanyllysine-amide | 62 |  | crude mass [2]: 0.18 g
9 | Phenylalanylphenylalanylvalyltyrosyl-D-lysine-amide |  |  | step yield ([3]; purification step): (40%)
10 | Phenylalanylphenylalanylvalyltyrosyllysine |  |  | step yield [4]: 40%
11 | Phenylalanylphenylalanylvalyltyrosyllysine-amide | 67 |  | crude mass ([3]; whole synthesis, scale 150 umol): 240 mg; crude yield [1]: 100%
12 | Phenylalanyltyrosylvalyltyrosyllysine-amide | 62 | 0.23 | 
13 | Tyrosylphenylalanylvalyltyrosyllysine-amide | 44 | 0.230 | crude yield [1]: 100%
